# Measured values taken from PubChem BioAssay AID2685 (National Center for Advancing Translational Sciences (NCATS), 2010).
# The other results are listed elsewhere or left out. Shown are side measurements of this screen, not its main read-out; they come without a call. Most of these compounds were active or inconclusive in the main read-out, so they are no random draw. The note in brackets gives the kind of curve behind each potency; many fits are weak.
# Assay: qHTS Assay for Lipid Storage Modulators in Drosophila S3 Cells;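 on cell number change: cells counted by Cell Tracker Red CMTPX staining in the red channel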
# Conditions: BODIPY lipid droplet fluorescence, 18-24 h; for cell number change: measured here: cell count max response, cells fed with added oleic acid
# Method in brief: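 Laser-scanning cytometry quantifies lipid droplet accumulation (500–530 nm total intensity; droplet/cell object ratio) in oleic acid-fed (400 uM added) Drosophila S3 cells treated with a concentration series. 20 uM Triacsin C defined 100% inhibition.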
# [1] = measured here: lipid fluorescence (Fed channel) AC50, cells fed with added oleic acid
# [2] = measured here: cell number channel AC50, cells fed with added oleic acid
Compound,cell number change,AC50 [1],AC50 [2]
CC(C)CN(C(=O)C1CC1)c1c(N)n(Cc2ccccc2)c(=O)[nH]c1=O,-10%,,
O=C1c2ccccc2C(Nc2ccccc2)N1Cc1ccc2c(c1)OCO2 (stereo unspecified),14.9%,"0.58 µM [rising, single point]",
Nc1nc(SCC(=O)c2cc(F)ccc2F)n[nH]1,,,"5.8 µM [rising, single point]"
COc1ccc(CNC(=S)Nc2cc(C)ccc2C)cc1,37.4%,,"0.517 µM [rising, full curve, poor fit]"
Cc1c(C2(c3c(C)n(C)n(-c4ccccc4)c3=O)C(=O)Nc3ccc(F)cc32)c(=O)n(-c2ccccc2)n1C,7.89%,"29.1 µM [falling, single point]",
COc1ccc(NC(=O)N2CCCC2C(=O)NCc2ccc(C)cc2)cc1 (stereo unspecified),5.61%,"7.31 µM [falling, partial curve]","4.11 µM [falling, partial curve]"
CC(=O)c1cc2c(cc1N(C(=O)c1ccco1)C(C(=O)NC1CCCC1)c1ccccc1F)OCO2 (stereo unspecified),5.46%,"6.51 µM [rising, partial curve, poor fit]",
CCOc1cc(CNCCCN2CCOCC2)ccc1OCC(=O)NC(C)(C)C,-24%,"0.461 µM [falling, full curve, poor fit]",
COc1ccc(/C=C/C(=O)c2cc(Br)ccc2O)cc1OC,12.6%,,
COc1ccc(-n2c(SCC(C)=O)nc3sc(C)c(C)c3c2=O)cc1,90.1%,,"29.1 µM [rising, partial curve, poor fit]"
COc1cc(Cl)ccc1OCc1cc(C(=O)N2CC[C@@H]3CCCC[C@H]3C2)no1,2.09%,,
COCCNC(=O)CCC1CCN(Cc2cccc(Oc3ccccc3)c2)CC1,14.3%,"0.146 µM [falling, partial curve, poor fit]",
COCCn1c(SCC(=O)NC2CCCCC2)nnc1-c1ccncc1,-1.28%,,
Cc1ncc([N+](=O)[O-])n1CCOC(=O)Nc1ccc([N+](=O)[O-])cc1,-16.8%,"0.231 µM [falling, partial curve, poor fit]",
Cc1sc(N)nc1-c1ccc(Oc2ccccc2)cc1,-37.8%,"0.651 µM [falling, full curve]","14.6 µM [falling, single point]"
CC(C)[C@H](NC(=O)N1CC(=O)Nc2ccccc21)C(=O)N[C@@H](C(=O)O)c1ccccc1,-6.49%,,
CN(Cc1ccccc1F)c1nc(-c2cccs2)nc2ccccc12,23.3%,"5.8 µM [rising, partial curve, poor fit]","0.146 µM [rising, full curve, poor fit]"
CCN1C(=O)[C@@H]2[C@@H](c3ccc(-c4ccc(Cl)c(Cl)c4)cc3)N3CCCC[C@@]3(C(=O)OC)[C@@H]2C1=O,-24%,"0.82 µM [rising, single point]",
Cc1nc(C)c(-c2csc(NCc3ccccc3)n2)s1,-38%,"2.06 µM [falling, partial curve]","0.461 µM [falling, full curve, poor fit]"
CC(=O)N(CCCN1CCOCC1)Cc1ccncc1,-19.5%,"0.00461 µM [falling, full curve, poor fit]","0.231 µM [falling, full curve, poor fit]"

# Looked up by compound from the entries so far (three):
Compound,cell number change,AC50 [1],AC50 [2]
COc1ccc(CNC(=S)Nc2cc(C)ccc2C)cc1,37.4%,,"0.517 µM [rising, full curve, poor fit]"
COc1ccc(/C=C/C(=O)c2cc(Br)ccc2O)cc1OC,12.6%,,
CC(C)[C@H](NC(=O)N1CC(=O)Nc2ccccc21)C(=O)N[C@@H](C(=O)O)c1ccccc1,-6.49%,,

# (further entries)

Compound,cell number change,AC50 [1],AC50 [2]
COc1nc(NCCc2ccc(OC)c(OC)c2)nc(OC)n1,,"23.1 µM [rising, partial curve]","1.46 µM [rising, partial curve]"
CCOc1ccc(C(=O)OCC(=O)NC(C)C)cc1,-6.47%,"0.326 µM [rising, partial curve, poor fit]",
Cc1cc(=O)[nH]c(SCC(=O)Nc2nonc2C)n1,-12.5%,"0.58 µM [rising, single point]","6.51 µM [rising, single point]"
COc1cccc(-n2c(SCC(=O)Nc3ccc4c(c3)CCC4)nc3ccccc3c2=O)c1,-20%,"20.6 µM [falling, single point]",
CCC(=O)Nc1ccc(N2CCCCC2)cc1,-63.3%,,"1.03 µM [falling, full curve]"
Cc1ccc(S(=O)(=O)CCC(=O)Nc2sccc2C#N)cc1,,"6.51 µM [falling, single point]",
Cn1cnnc1SCC(=O)Nc1cc(S(=O)(=O)N2CCCCCC2)ccc1Cl,,"0.0058 µM [falling, full curve, poor fit]",
CC(Oc1cccc(Cl)c1)C(=O)Nc1cc(S(=O)(=O)N2CCOCC2)ccc1N1CCCCC1 (stereo unspecified),173%,,
CC(C)CC(c1nnnn1C(C)C)N1CCN(c2ccccc2)CC1 (stereo unspecified),14.5%,"7.31 µM [rising, single point]",
COc1ccccc1NS(=O)(=O)c1cccc(C(=O)NNC(=O)c2ccc(NC(C)=O)cc2)c1,-3.2%,,
Cn1c(N2CCOCC2)c(/C=N/OC(=O)c2ccc(F)cc2)c2ccccc21,83.7%,,
Cc1ccccc1-c1nnn(Cc2ccc(F)cc2Cl)n1,19.6%,,
CCn1c(=O)cc(SCC(=O)N2CCN(C3CCCCC3)CC2)c2ccccc21,112%,"2.91 µM [rising, partial curve]",
NC(=O)c1cnn2c(C(F)(F)F)cc(-c3ccccc3)nc12,-6.12%,"0.651 µM [rising, partial curve, poor fit]",
Cc1ccc(CCNS(=O)(=O)c2ccc3c(c2)NC(=O)CCS3)cc1,9.54%,"29.1 µM [rising, single point]",
CCSc1ccccc1C(=O)n1nnc2ccccc21,8.57%,"0.731 µM [falling, full curve]","3.66 µM [falling, partial curve, poor fit]"
CN(C(=O)COC(=O)c1ccc(Cl)nc1)C1CCS(=O)(=O)C1 (stereo unspecified),-15.6%,"29.1 µM [falling, single point]","0.326 µM [falling, full curve, poor fit]"
CCOC(=O)CSc1nnc(-c2nnc(SCC(=O)OCC)n2CC)n1CC,1.48%,"5.8 µM [falling, partial curve]",
C=CCNC(=S)N1CCN(S(=O)(=O)c2ccc(C)cc2)CC1,10.2%,"0.651 µM [falling, single point]",
COc1ccc(NC(=S)Nc2ccccc2)c(OC)c1,58.1%,"0.651 µM [rising, single point]","29.1 µM [rising, single point]"

Compound,cell number change,AC50 [1],AC50 [2]
CC1CC1C(=O)OCC(=O)Nc1cccc(F)c1 (stereo unspecified),25%,"6.51 µM [falling, single point]",
NC(=O)CSc1nnc(COc2ccccc2)n1C1CCCCC1,4.74%,"14.6 µM [falling, partial curve, poor fit]",
CC(C)OCCCNC(=O)CCSc1ccc(Cl)cc1,13%,"14.6 µM [falling, partial curve]",
O=C(Nc1ccc2c(c1)OCCO2)c1cc(-n2cnnc2)ccc1Cl,12.2%,"16.4 µM [rising, single point]",
Cn1c(=O)c2c(ncn2CC(=O)Nc2cccc(S(=O)(=O)Nc3ccccc3F)c2)n(C)c1=O,-4.92%,"2.31 µM [falling, single point]",
CC(=O)NC1=C(NC2CCS(=O)(=O)C2)C(=O)c2ccccc2C1=O (stereo unspecified),-72.2%,"8.2 µM [falling, partial curve]","13 µM [falling, partial curve]"
CNC(=O)COC(=O)CCC(=O)c1ccc(Cl)cc1,24.3%,"13 µM [rising, single point]",
COc1ccc(NC(=O)CSc2ncnc3c2cnn3Cc2ccccc2)cc1,-12.1%,"29.1 µM [rising, single point]",
COc1cccc(-c2nnn(CC(=O)N3CCCCC3)n2)c1,30.5%,,"18.4 µM [rising, partial curve, poor fit]"
O=C(CNC(=O)c1ccccc1)c1ccccc1,24.5%,"6.51 µM [rising, partial curve]",
COC(=O)c1ccc(CNS(=O)(=O)c2ccc3ccccc3c2)cc1,7.26%,"6.51 µM [rising, single point]",
CCOc1ccccc1CNS(=O)(=O)c1cc(-c2cc(C)no2)ccc1C,-36.7%,"20.6 µM [falling, partial curve]","10.3 µM [falling, partial curve, poor fit]"
CC1CCC2(CC1)NC(=O)N(NC(=O)C1CCN(C(=O)c3ccc(Cl)cc3)CC1)C2=O (stereo unspecified),-10.4%,"6.51 µM [rising, single point]",
O=C(Nc1ccc(F)cc1F)C1CCN(c2ncnc3c2sc2cccc(F)c23)CC1,13.5%,,
COC(=O)c1c(NC(=O)c2ccc([N+](=O)[O-])o2)sc2c1CCN(C(C)C)C2,-22.6%,"20.6 µM [falling, single point]",
Cc1ccc2[nH]c(C(=O)N3CCN(c4cccc(Cl)c4)CC3)cc2c1,-16.1%,,
Cc1cccc(N2Cc3ccccc3C2=NC(=O)c2ccc(Cl)nc2)c1,-0.784%,"29.1 µM [rising, partial curve, poor fit]",
CCCC(C(=O)NC1CCCC1)N(C(=O)Cn1nnc(-c2ccc(C)o2)n1)C1CCCC1 (stereo unspecified),2.98%,"6.51 µM [falling, single point]",
C=CCn1c(SCC(=O)c2ccc(Br)cc2)nnc1C(C)NC(=O)Cc1ccc(OC)cc1 (stereo unspecified),34.7%,"25.9 µM [falling, single point]","29.1 µM [rising, single point]"
